Source: publication PMC6614423, “Noxa mitochondrial targeting domain induces necrosis via VDAC2 and mitochondrial catastrophe” (Cell Death & Disease, 2019)
No constants are given. Whether binding was seen depends on the method and setting. In cells and extracts the contact can be indirect. Some entries that bind do so weakly or less than the wild type. Sequences can lack the tags named with a protein.

Chains of the proteins cited; added tags and fusions are not shown.
UniProt P21796: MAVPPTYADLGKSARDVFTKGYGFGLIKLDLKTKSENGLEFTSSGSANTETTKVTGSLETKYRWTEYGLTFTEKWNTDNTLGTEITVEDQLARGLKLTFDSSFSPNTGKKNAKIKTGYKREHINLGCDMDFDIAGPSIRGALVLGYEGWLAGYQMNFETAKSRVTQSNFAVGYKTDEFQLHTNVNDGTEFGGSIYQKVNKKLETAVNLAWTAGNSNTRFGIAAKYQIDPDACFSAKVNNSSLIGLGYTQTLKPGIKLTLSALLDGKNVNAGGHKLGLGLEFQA

Tests used:
GFP-Noxa (41-54) = target: T1, GFP-Noxa (41-54) (UniProt Q13794); assay: co-IP; 293 HEK cells cotransfected with GFP-Noxa and VDAC-Flag plasmids; immunoprecipitation with anti-GFP antibody, immunoblot with anti-Flag
T1 sequence: KLLNLISKLFCSGT

GFP-Noxa (1-54) = target: T2, GFP-Noxa (1-54) (UniProt Q13794); assay: as above
T2 sequence: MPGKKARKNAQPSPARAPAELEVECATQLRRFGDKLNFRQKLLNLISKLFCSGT

binding (GFP-Noxa (41-54)): binds
binding (GFP-Noxa (1-54)): binds
Substance: VDAC1-Flag (from UniProt P21796 1-283)
